# Experimental data as given in the supplement of paper PMC8728848.
# Some of the results follow.
# Assays:
# Experiment in all cases: glycan array binding signal (z-score within array); higher = stronger binding
# Details in all cases: glycan notation: IUPAC condensed, linker removed
# [1] = target: Fuc(a1-2)[Gal(a1-4)]Gal(b1-4)GlcNAc
# Summary of the method: (§1)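 Arrays were curated from the Consortium for Functional Glycomics database, 3228 in total, and kept only where the protein sequence was available. Binding is expressed as a within-array Z-score. This score was averaged across arrays of the same protein sequence at different concentrations or buffers and across linkers, and negative values can be read as non-binding.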
# [2] = target: Fuc(a1-2)[GalNAc(a1-3)]Gal
# Summary of the method: as §1
# [3] = target: Fuc(a1-2)[GalNAc(a1-3)]Gal(b1-3)GalNAc(a1-3)[Fuc(a1-2)]Gal(b1-4)GlcNAc
# Summary of the method: as §1
# [4] = target: Fuc(a1-2)[GalNAc(a1-3)]Gal(b1-3)GalNAc(b1-3)Gal(a1-4)Gal(b1-4)Glc
# Summary of the method: as §1
# [5] = target: Fuc(a1-2)[GalNAc(a1-3)]Gal(b1-3)GlcNAc
# Summary of the method: as §1
# [6] = target: Fuc(a1-2)[GalNAc(a1-3)]Gal(b1-3)GlcNAc(b1-2)Man(a1-3)[Fuc(a1-2)[GalNAc(a1-3)]Gal(b1-3)GlcNAc(b1-2)Man(a1-6)]Man(b1-4)GlcNAc(b1-4)GlcNAc
# Summary of the method: as §1
# [7] = target: Fuc(a1-2)[GalNAc(a1-3)]Gal(b1-3)GlcNAc(b1-2)Man(a1-3)[Fuc(a1-2)[GalNAc(a1-3)]Gal(b1-3)GlcNAc(b1-2)Man(a1-6)]Man(b1-4)GlcNAc(b1-4)[Fuc(a1-6)]GlcNAc
# Summary of the method: as §1
# [8] = target: Fuc(a1-2)[GalNAc(a1-3)]Gal(b1-3)GlcNAc(b1-3)GalNAc
# Summary of the method: as §1
# [9] = target: Fuc(a1-2)[GalNAc(a1-3)]Gal(b1-3)GlcNAc(b1-6)GalNAc
# Summary of the method: as §1
# [10] = target: Fuc(a1-2)[GalNAc(a1-3)]Gal(b1-4)Glc
# Summary of the method: as §1
# [11] = target: Fuc(a1-2)[GalNAc(a1-3)]Gal(b1-4)GlcNAc
# Summary of the method: as §1
# [12] = target: Fuc(a1-2)[GalNAc(a1-3)]Gal(b1-4)GlcNAc(b1-2)Man
# Summary of the method: as §1
# [13] = target: Fuc(a1-2)[GalNAc(a1-3)]Gal(b1-4)GlcNAc(b1-2)Man(a1-3)[Fuc(a1-2)[GalNAc(a1-3)]Gal(b1-4)GlcNAc(b1-2)Man(a1-6)]Man(b1-4)GlcNAc(b1-4)GlcNAc
# Summary of the method: as §1
# [14] = target: Fuc(a1-2)[GalNAc(a1-3)]Gal(b1-4)GlcNAc(b1-2)Man(a1-3)[Fuc(a1-2)[GalNAc(a1-3)]Gal(b1-4)GlcNAc(b1-2)Man(a1-6)]Man(b1-4)GlcNAc(b1-4)[Fuc(a1-6)]GlcNAc
# Summary of the method: as §1
# [15] = target: Fuc(a1-2)[GalNAc(a1-3)]Gal(b1-4)GlcNAc(b1-3)Gal(b1-4)GlcNAc
# Summary of the method: as §1
# [16] = target: Fuc(a1-2)[GalNAc(a1-3)]Gal(b1-4)GlcNAc(b1-3)Gal(b1-4)GlcNAc(b1-3)Gal(b1-4)GlcNAc
# Summary of the method: as §1
# [17] = target: Fuc(a1-2)[GalNAc(a1-3)]Gal(b1-4)GlcNAc(b1-3)GalNAc
# Summary of the method: as §1
# [18] = target: Fuc(a1-2)[GalNAc(a1-3)]Gal(b1-4)GlcNAc(b1-3)[Fuc(a1-2)[GalNAc(a1-3)]Gal(b1-4)GlcNAc(b1-6)]GalNAc
# Summary of the method: as §1
# [19] = target: Fuc(a1-2)[GalNAc(a1-3)]Gal(b1-4)GlcNAc(b1-6)GalNAc
# Summary of the method: as §1
# [20] = target: Fuc(a1-2)[GalNAc(a1-3)]Gal(b1-4)[Fuc(a1-3)]GlcNAc
# Summary of the method: as §1
# [21] = target: Fuc(a1-2)[GalNAc(a1-3)]Gal(b1-4)[Fuc(a1-3)]GlcNAc(b1-3)GalNAc
# Summary of the method: as §1
# [22] = target: Fuc(a1-2)[GalNAc(a1-4)]Gal(b1-4)GlcNAc
# Summary of the method: as §1
# [23] = target: Fuc(a1-2)[GalNAc(b1-3)]Gal
# Summary of the method: as §1
# Fuc(a1-3)GlcNAc = target: Fuc(a1-3)GlcNAc
# Summary of the method: as §1
# [24] = target: Fuc(a1-3)[Gal(b1-4)]Glc6S
# Summary of the method: as §1
# [25] = target: Fuc(a1-3)[Gal(b1-4)]GlcNAc
# Summary of the method: as §1
# [26] = target: Fuc(a1-3)[Gal(b1-4)]GlcNAc(b1-2)Man
# Summary of the method: as §1
# [27] = target: Fuc(a1-3)[Gal(b1-4)]GlcNAc(b1-2)Man(a1-3)[Fuc(a1-3)[Gal(b1-4)]GlcNAc(b1-2)Man(a1-6)]Man(b1-4)GlcNAc(b1-4)GlcNAc
# Summary of the method: as §1
# [28] = target: Fuc(a1-3)[Gal(b1-4)]GlcNAc(b1-2)Man(a1-3)[Fuc(a1-3)[Gal(b1-4)]GlcNAc(b1-2)Man(a1-6)]Man(b1-4)GlcNAc(b1-4)[Fuc(a1-6)]GlcNAc
# Summary of the method: as §1
# [29] = target: Fuc(a1-3)[Gal(b1-4)]GlcNAc(b1-3)Gal(b1-3)[Fuc(a1-4)]GlcNAc
# Summary of the method: as §1
# [30] = target: Fuc(a1-3)[Gal(b1-4)]GlcNAc(b1-3)Gal(b1-4)[Fuc(a1-3)]GlcNAc
# Summary of the method: as §1
# [31] = target: Fuc(a1-3)[Gal(b1-4)]GlcNAc(b1-3)Gal(b1-4)[Fuc(a1-3)]GlcNAc(b1-3)Gal(b1-4)[Fuc(a1-3)]GlcNAc
# Summary of the method: as §1
# [32] = target: Fuc(a1-3)[Gal(b1-4)]GlcNAc(b1-3)GalNAc
# Summary of the method: as §1
# [33] = target: Fuc(a1-3)[Gal(b1-4)]GlcNAc(b1-6)GalNAc
# Summary of the method: as §1
# [34] = target: Fuc(a1-3)[Gal(b1-4)]GlcNAc(b1-6)[Gal(b1-3)GlcNAc(b1-3)]Gal(b1-4)Glc
# Summary of the method: as §1
# [35] = target: Fuc(a1-3)[Gal(b1-4)]GlcNAc6S
# Summary of the method: as §1
# [36] = target: Fuc(a1-3)[Gal3S(b1-4)]Glc
# Summary of the method: as §1
# [37] = target: Fuc(a1-3)[Gal3S(b1-4)]GlcNAc
# Summary of the method: as §1
binder,measurement,setting,value
OS9 (Arabidopsis thaliana) (protein) MRGSHHHHHHGMASMTGGQQMGRDLYDDDDKSRLQIFPAHLVGTFSRNNREPKYKIEFLPEDSPFHPGDNLESMVMLDKHGNRFLCYLPKEEKATSGWTSSQQNISTVMMETQQLVKLKTPDELLQPLSEKCLFRQEGWWSYEFCHQKYVRQLHVEDENKIVQEFFLGTFDPEATAAFNQTVSDASTDASQRYHSHVYTNGTTCDLTGSPREVEVRFVCAETRAMVTSITELSTCKYALTVQCPTLCKHPLFQLEKPVSHTIHCNAIPVEEDATRNKEEQAVDESPKMIADS,glycan array binding signal (z-score),[1],0.342
same,glycan array binding signal (z-score),[2],0.599
same,glycan array binding signal (z-score),[3],-0.644
same,glycan array binding signal (z-score),[4],0.659
same,glycan array binding signal (z-score),[5],-0.221
same,glycan array binding signal (z-score),[6],0.907
same,glycan array binding signal (z-score),[7],0.007
same,glycan array binding signal (z-score),[8],0.937
same,glycan array binding signal (z-score),[9],-0.832
same,glycan array binding signal (z-score),[10],0.068
same,glycan array binding signal (z-score),[11],-0.828
same,glycan array binding signal (z-score),[12],-0.272
same,glycan array binding signal (z-score),[13],-0.302
same,glycan array binding signal (z-score),[14],0.082
same,glycan array binding signal (z-score),[15],-0.425
same,glycan array binding signal (z-score),[16],0.087
same,glycan array binding signal (z-score),[17],-1.24
same,glycan array binding signal (z-score),[18],0.139
same,glycan array binding signal (z-score),[19],-0.027
same,glycan array binding signal (z-score),[20],1.62
same,glycan array binding signal (z-score),[21],0.124
same,glycan array binding signal (z-score),[22],-0.01
same,glycan array binding signal (z-score),[23],-0.156
same,glycan array binding signal (z-score),Fuc(a1-3)GlcNAc,0.816
same,glycan array binding signal (z-score),[24],-0.704
same,glycan array binding signal (z-score),[25],-0.439
same,glycan array binding signal (z-score),[26],1.56
same,glycan array binding signal (z-score),[27],0.373
same,glycan array binding signal (z-score),[28],-1.08
same,glycan array binding signal (z-score),[29],-0.792
same,glycan array binding signal (z-score),[30],0.209
same,glycan array binding signal (z-score),[31],-0.881
same,glycan array binding signal (z-score),[32],0.383
same,glycan array binding signal (z-score),[33],-1.02
same,glycan array binding signal (z-score),[34],0.901
same,glycan array binding signal (z-score),[35],3.45
same,glycan array binding signal (z-score),[36],-0.948
same,glycan array binding signal (z-score),[37],1.51

# Another view of part of the listing above.
binder	measurement	setting	value
OS9 (Arabidopsis thaliana) (protein) MRGSHHHHHHGMASMTGGQQMGRDLYDDDDKSRLQIFPAHLVGTFSRNNREPKYKIEFLPEDSPFHPGDNLESMVMLDKHGNRFLCYLPKEEKATSGWTSSQQNISTVMMETQQLVKLKTPDELLQPLSEKCLFRQEGWWSYEFCHQKYVRQLHVEDENKIVQEFFLGTFDPEATAAFNQTVSDASTDASQRYHSHVYTNGTTCDLTGSPREVEVRFVCAETRAMVTSITELSTCKYALTVQCPTLCKHPLFQLEKPVSHTIHCNAIPVEEDATRNKEEQAVDESPKMIADS	glycan array binding signal (z-score)	[19]	-0.027
same	glycan array binding signal (z-score)	[20]	1.62
